Measurements reported in patent US6815208B2, “Chemical treatment for hydrostatic test” (Champion Technologies, Inc., priority 2001, dated 2004).

Tested on: Sulfate Reducing Bacteria (SRB)
Experiment: Evaluation of biocides in pH adjusted medium containing SRB, with coupons
Assay type: cell-based
Description: In these experiments, SRB or FAAPB cultures were treated with various concentrations of biocides, after raising the pH to 9.8-10.00. The bacterial growth in the treated samples was estimated by the serial dilution method. The visual appearance of coupons in treated and untreated samples was recorded. An aldehyde and phosphonium quat were used for biocides.

Row | Compound | Observation of Coupon (Concentration 12.5) | Observation of Coupon (Concentration 25) | Observation of Coupon (Concentration 75) | Observation of Coupon (Concentration 150) | Observation of Coupon (Concentration 18.75) | Observation of Coupon (Concentration 37.5) | Observation of Coupon (Concentration 112.5)
1 | O=CCCCC=O [Glutaraldehyde, glutaraldehyde] | Black patches | Small black spots observed | Clean | Clean |  |  | 
2 | tetrakis hydroxymethyl phosphonium sulfate [THPS] |  |  |  |  | Black patches | Few black spots | Clean
